Source: patent publication US20100022457A1 (Bristol-Myers Squibb Company, priority 2006, published 2010)
[ ]: non-standard residue; d: D form. Ala(6-(2-MePh)pyridin-3-yl) = Cc1ccccc1-c1ccc(C[C@H](N)C(=O)O)cn1; Bip(2'-Et-4'-OMe) = CCc1cc(OC)ccc1-c1ccc(C[C@H](N)C(=O)O)cc1; αMePhe(2-F) = C[C@](N)(Cc1ccccc1F)C(=O)O; αMeP = C[C@@]1(C(=O)O)CCCN1; dNMeA = CN[C@H](C)C(=O)O

Test: general procedure: Fmoc solid-phase peptide synthesis; Sieber amide resin (loading 0.5 to 0.7 mmol/g); 2-chlorotrityl chloride resin for protected fragments; PyBOP/DIEA, DIC/HOAt, HATU/HOAt
Conditions: whole synthesis; for isolated yield: recovery

H-H[dNMeA]EGT[αMePhe(2-F)]TSD[Bip(2'-Et-4'-OMe)][Ala(6-(2-MePh)pyridin-3-yl)]-NH2 (SMILES CCc1cc(OC)ccc1-c1ccc(C[C@H](NC(=O)[C@H](CC(=O)O)NC(=O)[C@H](CO)NC(=O)[C@@H](NC(=O)[C@](C)(Cc2ccccc2F)NC(=O)[C@@H](NC(=O)CNC(=O)[C@H](CCC(=O)O)NC(=O)[C@@H](C)N(C)C(=O)[C@@H](N)Cc2c[nH]cn2)[C@@H](C)O)[C@@H](C)O)C(=O)N[C@@H](Cc2ccc(-c3ccccc3C)nc2)C(N)=O)cc1)
isolated yield: 18.5% recovery

H-H[αMeP]EGT[αMePhe(2-F)]THD[Bip(2'-Et-4'-OMe)][Ala(6-(2-MePh)pyridin-3-yl)]-NH2 (SMILES CCc1cc(OC)ccc1-c1ccc(C[C@H](NC(=O)[C@H](CC(=O)O)NC(=O)[C@H](Cc2c[nH]cn2)NC(=O)[C@@H](NC(=O)[C@](C)(Cc2ccccc2F)NC(=O)[C@@H](NC(=O)CNC(=O)[C@H](CCC(=O)O)NC(=O)[C@]2(C)CCCN2C(=O)[C@@H](N)Cc2c[nH]cn2)[C@@H](C)O)[C@@H](C)O)C(=O)N[C@@H](Cc2ccc(-c3ccccc3C)nc2)C(N)=O)cc1)
final HPLC purity (analytical RP-HPLC with UV detection, YMC ODS S3 column, scale 0.05 mmol): 94%
isolated yield (scale 0.05 mmol): 42% recovery
isolated mass (scale 0.05 mmol): 21.7 mg
